Test results as given in publication doi:10.1101/2025.03.28.645880.
Results are given in words; binding and its absence hold for the method and conditions named. In cells and extracts the contact can be indirect. Some binding calls cover weakened binding; strength is not graded here.

Chains of the proteins cited; added tags and fusions are not shown.
UniProt Q00610: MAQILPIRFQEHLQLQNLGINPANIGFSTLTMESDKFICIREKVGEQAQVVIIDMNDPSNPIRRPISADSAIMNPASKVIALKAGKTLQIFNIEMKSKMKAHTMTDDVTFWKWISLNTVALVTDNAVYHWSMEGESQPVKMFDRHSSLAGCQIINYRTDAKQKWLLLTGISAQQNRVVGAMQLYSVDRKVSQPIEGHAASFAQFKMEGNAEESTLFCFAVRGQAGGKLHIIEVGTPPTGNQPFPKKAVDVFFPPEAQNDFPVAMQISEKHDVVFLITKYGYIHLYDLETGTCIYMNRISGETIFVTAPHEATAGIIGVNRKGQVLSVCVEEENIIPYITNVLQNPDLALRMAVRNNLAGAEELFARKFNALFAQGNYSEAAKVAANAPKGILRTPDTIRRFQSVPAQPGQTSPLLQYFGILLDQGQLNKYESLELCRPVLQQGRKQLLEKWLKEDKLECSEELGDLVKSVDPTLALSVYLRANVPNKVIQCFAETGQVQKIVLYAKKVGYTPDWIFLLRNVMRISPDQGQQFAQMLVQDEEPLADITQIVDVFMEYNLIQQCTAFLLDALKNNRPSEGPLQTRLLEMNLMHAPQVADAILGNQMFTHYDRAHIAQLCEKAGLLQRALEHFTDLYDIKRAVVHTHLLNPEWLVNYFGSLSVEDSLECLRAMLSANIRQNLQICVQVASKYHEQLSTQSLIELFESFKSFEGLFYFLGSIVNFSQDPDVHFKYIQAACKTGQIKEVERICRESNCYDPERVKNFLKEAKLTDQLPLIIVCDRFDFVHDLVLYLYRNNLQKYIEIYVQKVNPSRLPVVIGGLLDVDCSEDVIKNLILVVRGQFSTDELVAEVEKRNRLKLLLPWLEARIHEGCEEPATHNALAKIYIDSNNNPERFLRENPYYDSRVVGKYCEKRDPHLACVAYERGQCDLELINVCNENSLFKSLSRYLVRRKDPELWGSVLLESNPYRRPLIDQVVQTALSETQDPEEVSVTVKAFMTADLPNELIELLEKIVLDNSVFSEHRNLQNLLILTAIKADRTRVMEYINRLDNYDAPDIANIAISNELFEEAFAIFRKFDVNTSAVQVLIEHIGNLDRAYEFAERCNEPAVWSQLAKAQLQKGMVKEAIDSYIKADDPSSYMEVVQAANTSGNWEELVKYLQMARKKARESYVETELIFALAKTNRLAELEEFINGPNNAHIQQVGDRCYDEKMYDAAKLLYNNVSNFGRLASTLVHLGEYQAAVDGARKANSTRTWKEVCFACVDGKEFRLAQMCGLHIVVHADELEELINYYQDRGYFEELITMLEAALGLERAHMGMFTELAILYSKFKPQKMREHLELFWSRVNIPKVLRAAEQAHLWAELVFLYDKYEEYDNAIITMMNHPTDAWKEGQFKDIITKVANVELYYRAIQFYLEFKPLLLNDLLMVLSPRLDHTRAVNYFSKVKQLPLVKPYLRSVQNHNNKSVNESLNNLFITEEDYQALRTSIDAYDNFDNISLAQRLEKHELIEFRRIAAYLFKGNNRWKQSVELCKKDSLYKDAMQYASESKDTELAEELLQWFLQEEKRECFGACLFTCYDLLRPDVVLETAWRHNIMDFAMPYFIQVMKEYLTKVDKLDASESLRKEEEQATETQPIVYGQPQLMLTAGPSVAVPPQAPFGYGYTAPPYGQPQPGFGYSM

Target: T1, human Copper Transporter-1 (hCTR1) (human) (UniProt O15431)
T1 sequence: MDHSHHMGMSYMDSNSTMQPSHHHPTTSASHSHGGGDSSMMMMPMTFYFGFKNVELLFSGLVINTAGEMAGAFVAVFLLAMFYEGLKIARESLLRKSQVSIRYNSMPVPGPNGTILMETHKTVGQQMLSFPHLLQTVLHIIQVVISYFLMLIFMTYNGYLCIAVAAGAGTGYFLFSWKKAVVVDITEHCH
Assay: co-IP

binding: binds
Substance: Clathrin Heavy Chain (from UniProt Q00610 1-1675)
